According to PubChem BioAssay AID190 (DTP/NCI, 2004):
The list does not hold the whole screen: its compounds were picked by chemical class. Other doses and runs of a compound may be missing. T/C is the treated group as % of the vehicle group. Where survival is the endpoint, this PubChem deposit counts one and a half times the control or more as active, and values a quarter to a half above the control carry no call in these data; other NCI protocols may use other cut-offs. Some T/C values are marked as having no survivor count here; that says nothing about deaths at the dose. Schedules are NCI's codes, read here as Q, the interval in days (D) or hours (H), X, the number of doses. Some entries were tested several times; their values stand side by side, smallest first.

System: AKR/Lw mice, AKR lymphoma ip, median survival T/C
Experiment: NCI In Vivo Anticancer Drug Screen. Data for tumor model Lymphoma AKR (Transplanted) (intraperitoneal) in AKR/Lw mice
Conditions: T/C endpoint: median survival time, higher T/C = longer survival
Method: The antitumor activity of compounds was measured in mice bearing transplantable tumors. Survival or tumor size were measured and the results are expressed as the measurement made in the treated group (T) divided by the measurement made in the vehicle treated control group (C). The tumor model used in this assay is Lymphoma AKR (Transplanted) (intraperitoneal) in AKR/Lw mice

## CN(CCCl)CCCl
dose: 0.02 mg/kg/injection, schedule: Q01DX009 (ip), vehicle: saline
  T/C: 125 % of control [survivor count not shown]
dose: 0.05 mg/kg/injection, schedule: Q01DX001 (ip), vehicle: saline
  T/C: 102 % of control [survivor count not shown]
dose: 0.05 mg/kg/injection, schedule: Q04DX003 (ip), vehicle: saline
  T/C: 96 [survivor count not shown] and 102 % of control [survivor count not shown]
dose: 0.06 mg/kg/injection, schedule: Q01DX001 (ip), vehicle: saline
  T/C: 105 % of control [survivor count not shown]
dose: 0.1 mg/kg/injection, schedule: Q01DX001 (ip), vehicle: saline
  T/C: 119 % of control [survivor count not shown]
dose: 0.1 mg/kg/injection, schedule: Q04DX003 (ip), vehicle: saline
  T/C: 120 % of control [survivor count not shown]
dose: 0.12 mg/kg/injection, schedule: Q01DX001 (ip), vehicle: saline
  T/C: 91 [survivor count not shown], 100 [survivor count not shown], 107 [survivor count not shown], 116 % of control [survivor count not shown]
dose: 0.2 mg/kg/injection, schedule: Q01DX001 (ip), vehicle: saline
  T/C: 108 % of control [survivor count not shown]
dose: 0.2 mg/kg/injection, schedule: Q04DX003 (ip), vehicle: saline
  T/C: 114 % of control [survivor count not shown]
dose: 0.25 mg/kg/injection, schedule: Q01DX001 (ip), vehicle: Klucel (hydroxypropylcellulose) (HPC)
  T/C: 102 % of control [survivor count not shown]
dose: 0.25 mg/kg/injection, schedule: Q01DX001 (ip), vehicle: saline
  T/C: 88 [survivor count not shown], 102 [survivor count not shown], 110 [survivor count not shown], 111 [survivor count not shown], 138 % of control [survivor count not shown]
dose: 0.25 mg/kg/injection, schedule: Q01DX009 (ip), vehicle: saline
  T/C: 105 [survivor count not shown] and 113 % of control [survivor count not shown]
dose: 0.25 mg/kg/injection, schedule: Q04DX003 (ip), vehicle: saline
  T/C: 92 [survivor count not shown], 100 [survivor count not shown], 109 [survivor count not shown], 146 % of control [survivor count not shown]
dose: 0.35 mg/kg/injection, schedule: Q01DX001 (ip), vehicle: Klucel (hydroxypropylcellulose) (HPC)
  T/C: 105 % of control [survivor count not shown]
dose: 0.5 mg/kg/injection, schedule: Q01DX001 (ip), vehicle: Klucel (hydroxypropylcellulose) (HPC)
  T/C: 115 % of control [survivor count not shown]
dose: 0.5 mg/kg/injection, schedule: Q01DX001 (ip), vehicle: saline
  T/C: 88 [survivor count not shown], 100 [survivor count not shown], 104 [survivor count not shown], 107 [survivor count not shown], 118 [survivor count not shown], 130 % of control [survivor count not shown]
dose: 0.5 mg/kg/injection, schedule: Q01DX009 (ip), vehicle: saline
  T/C: 93 [survivor count not shown] and 147 % of control [survivor count not shown]
dose: 0.5 mg/kg/injection, schedule: Q04DX003 (ip), vehicle: saline
  T/C: 88 [survivor count not shown], 89 [survivor count not shown], 111 % of control [survivor count not shown]
dose: 0.75 mg/kg/injection, schedule: Q01DX001 (ip), vehicle: Klucel (hydroxypropylcellulose) (HPC)
  T/C: 120 % of control [survivor count not shown]
dose: 0.75 mg/kg/injection, schedule: Q01DX001 (ip), vehicle: saline
  T/C: 116 % of control [survivor count not shown]
dose: 1.0 mg/kg/injection, schedule: Q01DX001 (ip), vehicle: saline
  T/C: 88 [survivor count not shown], 94 [survivor count not shown], 102 [survivor count not shown], 104 [survivor count not shown], 114 [survivor count not shown], 121 % of control [survivor count not shown]
dose: 1.0 mg/kg/injection, schedule: Q01DX009 (ip), vehicle: saline
  T/C: 93 [survivor count not shown] and 94 % of control [survivor count not shown]
dose: 1.0 mg/kg/injection, schedule: Q04DX003 (ip), vehicle: saline
  T/C: 86 [survivor count not shown] and 169 % of control [survivor count not shown]
dose: 1.5 mg/kg/injection, schedule: Q01DX001 (ip), vehicle: saline
  T/C: 113 [survivor count not shown] and 115 % of control [survivor count not shown]
dose: 2.0 mg/kg/injection, schedule: Q01DX001 (ip), vehicle: saline
  T/C: 100 [survivor count not shown], 112 [survivor count not shown], 117 % of control [survivor count not shown]
dose: 2.0 mg/kg/injection, schedule: Q04DX003 (ip), vehicle: saline
  T/C: 165 % of control [survivor count not shown]
dose: 3.0 mg/kg/injection, schedule: Q01DX001 (ip), vehicle: saline
  T/C: 111 [survivor count not shown] and 131 % of control [survivor count not shown]
dose: 4.0 mg/kg/injection, schedule: Q01DX001 (ip), vehicle: saline
  T/C: 95 [survivor count not shown] and 121 % of control [survivor count not shown]
dose: 0.1 micrograms/kg/injection, schedule: Q01DX009 (ip), vehicle: saline
  T/C: 105 % of control [survivor count not shown]
dose: 0.2 micrograms/kg/injection, schedule: Q01DX009 (ip), vehicle: saline
  T/C: 117 % of control [survivor count not shown]
dose: 0.5 micrograms/kg/injection, schedule: Q01DX009 (ip), vehicle: saline
  T/C: 92 % of control [survivor count not shown]
dose: 2.5 micrograms/kg/injection, schedule: Q01DX009 (ip), vehicle: saline
  T/C: 105 % of control [survivor count not shown]
dose: 5.0 micrograms/kg/injection, schedule: Q01DX009 (ip), vehicle: saline
  T/C: 91 % of control [survivor count not shown]
dose: 6.0 micrograms/kg/injection, schedule: Q01DX009 (ip), vehicle: saline
  T/C: 115 [survivor count not shown] and 121 % of control [survivor count not shown]
dose: 10.0 micrograms/kg/injection, schedule: Q01DX009 (ip), vehicle: saline
  T/C: 94 % of control [survivor count not shown]
dose: 12.0 micrograms/kg/injection, schedule: Q01DX009 (ip), vehicle: saline
  T/C: 103 [survivor count not shown], 105 [survivor count not shown], 123 % of control [survivor count not shown]
dose: 12.5 micrograms/kg/injection, schedule: Q04DX003 (ip), vehicle: saline
  T/C: 90 [survivor count not shown] and 97 % of control [survivor count not shown]
dose: 25.0 micrograms/kg/injection, schedule: Q01DX009 (ip), vehicle: saline
  T/C: 100 [survivor count not shown], 105 [survivor count not shown], 121 % of control [survivor count not shown]
dose: 25.0 micrograms/kg/injection, schedule: Q04DX003 (ip), vehicle: saline
  T/C: 87 [survivor count not shown], 103 [survivor count not shown], 107 % of control [survivor count not shown]
dose: 50.0 micrograms/kg/injection, schedule: Q04DX003 (ip), vehicle: saline
  T/C: 94 [survivor count not shown], 116 [survivor count not shown], 159 % of control [survivor count not shown]
dose: 100.0 micrograms/kg/injection, schedule: Q01DX009 (ip), vehicle: saline
  T/C: 100 [survivor count not shown] and 119 % of control [survivor count not shown]
dose: 100.0 micrograms/kg/injection, schedule: Q04DX003 (ip), vehicle: saline
  T/C: 89 [survivor count not shown] and 107 % of control [survivor count not shown]
